The experiment has as its target 6×His-tagged full-length XRCC4 (human) (UniProt Q13426). Kind of experiment: SPR; ProteOn XPR36; recombinant XRCC4-6×His (or variant) amine-coupled on a GLC chip; SUMO or ubiquitin topologies or XLF flowed over; 100 mM NaCl, 10 mM HEPES pH 7.0, 0.1% Igepal; 25°C; both purified. For orientation: Surface plasmon resonance follows binding to a sensor surface in real time, without labels.

The chains behind the UniProt entries cited, without tags or fusion partners. Residues count along the entry.
UniProt Q13426: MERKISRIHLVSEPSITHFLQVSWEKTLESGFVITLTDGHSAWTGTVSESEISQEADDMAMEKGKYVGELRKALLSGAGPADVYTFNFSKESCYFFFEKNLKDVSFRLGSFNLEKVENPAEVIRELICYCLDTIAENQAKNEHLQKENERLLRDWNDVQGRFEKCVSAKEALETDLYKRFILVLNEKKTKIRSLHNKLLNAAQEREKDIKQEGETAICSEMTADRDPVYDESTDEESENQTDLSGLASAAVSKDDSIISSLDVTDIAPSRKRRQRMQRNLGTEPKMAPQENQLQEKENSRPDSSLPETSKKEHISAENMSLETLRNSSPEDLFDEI
UniProt P55854, residues 1-92: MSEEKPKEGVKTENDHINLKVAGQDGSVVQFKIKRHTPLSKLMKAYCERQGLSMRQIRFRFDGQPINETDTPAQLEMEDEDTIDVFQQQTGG

These are yes or no findings as the source states them, for the method shown. Some entries that bind do so weakly or less than the wild type.

Consider “PolySUMO3 chains (from UniProt P55854 1-92) (complex)”, for which the binding entry is “binds”.

The record behind these values is publication PMC9071424.
